Source: publication PMC11922746, “SPO11 dimers are sufficient to catalyse DNA double-strand breaks in vitro” (Nature, 2024)

Legend:
[1] = target: T1, MBP-SPO11 Y137F/Y138F (YFYF) (Mus musculus) (UniProt Q9WTK8); assay: covalent complex, SDS-PAGE; conditions: no covalent adduct, non-covalent binding not tested here; recombinant protein; protein details: MBP; label: 3' 6-FAM on top strand
T1 sequence (looked up, limits assumed): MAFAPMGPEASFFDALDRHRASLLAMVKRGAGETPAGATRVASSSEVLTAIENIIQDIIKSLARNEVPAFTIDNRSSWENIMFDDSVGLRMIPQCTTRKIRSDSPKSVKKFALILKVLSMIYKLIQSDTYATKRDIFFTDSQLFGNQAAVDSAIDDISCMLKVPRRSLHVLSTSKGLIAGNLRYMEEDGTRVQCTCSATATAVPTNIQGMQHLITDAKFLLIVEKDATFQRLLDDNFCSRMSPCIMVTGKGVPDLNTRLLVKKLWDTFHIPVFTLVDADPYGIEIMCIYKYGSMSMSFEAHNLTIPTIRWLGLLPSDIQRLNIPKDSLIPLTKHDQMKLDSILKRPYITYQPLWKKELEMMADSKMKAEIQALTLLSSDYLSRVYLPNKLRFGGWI

MBP-SPO11 (Mus musculus) [2] = target: T2, MBP-SPO11 (Mus musculus) (UniProt Q9WTK8); assay: covalent complex, SDS-PAGE; conditions: covalent 5' adduct after cleavage; recombinant protein; protein details: MBP; label: 3' 6-FAM on top strand
T2 sequence (looked up, limits assumed): T1 sequence (looked up, limits assumed) with F137Y, F138Y

MBP-SPO11 (Mus musculus) [3] = target: T2, MBP-SPO11 (Mus musculus); assay: EMSA; conditions: 5 mM EDTA, 0.1 nM DNA, SPO11 alone does not bind efficiently, EMSA: 25 mM Tris-HCl pH 7.5, 7.5% glycerol, 50 mM NaCl, 2 mM DTT, 1 mg/ml BSA, 37 C, 30 min, 0.1 nM labelled hairpin or 100 ng plasmid in 20 µl, recombinant protein, protein details: MBP, label: 5' 32P, folded or branched DNA

Sequence | binding result [1] | binding result (MBP-SPO11 (Mus musculus) [2]) | binding result (MBP-SPO11 (Mus musculus) [3])
CTAGTATAGAGCCGGCGCGCCATGTCTAGATAGCGTTAGGTCTGCCGAATAGTACTACTCGGATCCCGAGCGAACCACGC (double strand) [80-bp duplex, 3' 6-FAM (cb1593/cb100)] | no binding | binds | –
TAGCAATGTAATCGTCTATGACGTTAACGTCATAGACGATTACATTGC [cb957 hairpin, 25 bp, 2-nt 5' overhang] | – | – | binds more weakly

Changes are numbered by the printed parent chain. For at least one entry, the source does not settle the construct or the ends of the probe. For part of these data: Negatives hold for the conditions tested. Tags and fusion partners may be left off the protein sequences shown. For part of these data: Weaker means in comparison with the reference protein, sequence or condition of that experiment.
